The values below come from PubChem BioAssay (NCATS).

Some of the results follow. Further columns of the screen follow, without active or inactive calls. Most of these compounds were active or inconclusive in the main read-out, so they are no random draw. Words in brackets tell the shape of the fitted curve; partial curves, single points and poor fits give uncertain potencies.

This assay is described as follows: NCATS anti-infectives library activity on the primary C. elegans qHTS viability assay (AID 1745855). Conditions: C. elegans worm area imaging, day 7, measured here: worm number. Put shortly: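 GFP read-out by 488 nm laser cytometry at day 0, 3 and 7, gated on object perimeter, area and peak intensity, scored viability of PE254-GFP-FLuc worms exposed to compound in S medium with bacterial capsules at 21 °C.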
(In general: qHTS replaces the single test concentration by a dilution series.)
Turning to `COc1ccc2c(c1)[C@@H]1C[C@]1(C(=O)N1[C@@H]3CC[C@H]1CN(C)C3)Cn1c-2c(C2CCCCC2)c2ccc(C(=O)NS(=O)(=O)N(C)C)cc21`, the AC50 is 20.5 µM [falling, partial curve]. Regarding `CCCN1CCC=C(c2cc(-c3ccc(C)cc3)no2)C1`, the AC50 was 5.15 µM [falling, partial curve].

On to `Cc1cnc(NC(=O)c2cc(S(=O)(=O)N(C)C)ccc2N2CCCC2)s1`, for which the concentration at half-maximal activity (AC50) was 4.09 µM [falling, full curve, poor fit]. Next, `CC(C)(CNC(=O)c1cccc(-c2noc(C(F)(F)F)n2)c1)c1coc(-c2ccccc2)n1`: 0.728 µM [falling, full curve, poor fit]; `O=c1c(O[C@@H]2O[C@H](CO)[C@H](O)[C@H](O)[C@H]2O)c(-c2ccc(O)c(O)c2)oc2cc(O)cc(O)c12`: 14.5 µM [falling, partial curve, poor fit].

On to `Cc1cc(/C=C/C#N)cc(C)c1Nc1ccnc(Nc2ccc(C#N)cc2)n1`, for which the AC50 was 14.5 µM [falling, partial curve, poor fit]. As for `NS(=O)(=O)c1ccc(NC(=O)Nc2ccc(F)cc2)cc1`, the AC50 was 20.5 µM [falling, partial curve]. Next, `O=C(/C=C/c1ccccc1)NC(NC(=S)Nc1cccc2cccnc12)C(Cl)(Cl)Cl` (stereo not drawn): 4.59 µM [falling, full curve, poor fit]; `CC(C)c1cnn2c(NCc3ccccc3-n3cccn3)nc(OC3CCCNC3)nc12` (stereo not drawn): 8.16 µM [falling, partial curve, poor fit]; `Cc1cccc(/C=N/Nc2cc(N3CCOCC3)nc(OCCc3ccccn3)n2)c1`: 2.3 µM [falling, partial curve, poor fit]. The result for `CC(C)C[C@H](NC(=O)CNC(=O)c1cc(Cl)ccc1Cl)B1OC(=O)C(CC(=O)O)(CC(=O)O)O1` reads 0.916 µM [falling, full curve]; that for `Cc1cc(C)c(Nc2ccnc(Nc3ccc(C#N)cc3)n2)c(C)c1`, 7.27 µM [falling, partial curve]. The result for `O=P(O)(O)C(O)(Cn1ccnc1)P(=O)(O)O` reads 1.63 µM [falling, single point]; that for `Cc1cc(Nc2cc(N)ncn2)c(=O)n2c1C(=O)NC21CCCCC1`, 18.3 µM [falling, partial curve, poor fit]; that for `CN1C(N)=N[C@](C)(c2cc(NC(=O)c3ccc(F)cn3)ccc2F)CS1(=O)=O`, 20.5 µM [falling, partial curve, poor fit]. For `CC(C)c1nc(CN(C)C(=O)N[C@@H](CCN2CCOCC2)C(=O)N[C@H](CC[C@H](Cc2ccccc2)NC(=O)OCc2cncs2)Cc2ccccc2)cs1`, the AC50 is 23 µM [falling, single point]. For the compound `C=C[C@@H]1C[C@]1(NC(=O)[C@@H]1C[C@@H](Oc2ncc(OC)c3ccc(Cl)cc23)CN1C(=O)[C@@H](NC(=O)OC(C)(C)C)C(C)(C)C)C(=O)NS(=O)(=O)C1CC1`, the AC50 was 5.15 µM [falling, partial curve].

In the case of `Cc1onc(-c2ccccc2)c1C(=O)N1CCN(c2ccc([N+](=O)[O-])cc2Cl)CC1`, the AC50 is 0.916 µM [falling, partial curve, poor fit]. Next, `Cc1cn([C@H]2O[C@@H](CO)[C@H](O)[C@H]2F)c(=O)[nH]c1=O`: 8.16 µM [falling, partial curve, poor fit]. Consider `CN(C)c1nc2c(Br)c(Br)c(Br)c(Br)c2n1CC(=O)O`, for which the AC50 is 23 µM [falling, single point]. In the case of `C=CC[C@@H]1/C=C(\C)C[C@H](C)C[C@H](OC)[C@H]2O[C@@](O)(C(=O)C(=O)N3CCCC[C@H]3C(=O)O[C@H](/C(C)=C/[C@@H]3CC[C@@H](O)[C@H](OC)C3)[C@H](C)[C@@H](O)CC1=O)[C@H](C)C[C@@H]2OC`, the concentration at half-maximal activity (AC50) was 5.15 µM [falling, partial curve, poor fit]. Turning to `Cc1oc(=O)oc1CN1CCN(c2cc3c(cc2F)c(=O)c(C(=O)O)c2n3C(C)S2)CC1` (stereo not drawn), the concentration at half-maximal activity (AC50) is 20.5 µM [falling, partial curve, poor fit]. Next, `O=c1cc(-c2ccc(O)c(O)c2)oc2cc(O[C@@H]3O[C@H](CO)[C@@H](O)[C@H](O)[C@H]3O)cc(O)c12`: 29 µM [rising, single point]; `CCCCCCCCCCCCCCCCn1cc[n+](Cc2ccccc2)c1C`: 14.5 µM [falling, partial curve]; `Cc1nc(N(C)C(=O)Cc2ccc(-c3ccccn3)cc2)sc1S(N)(=O)=O`: 2.58 µM [falling, full curve]. Next, `C[n+]1cccc(C(=O)[O-])c1`: 25.8 µM [falling, single point]; `CN(C)CC(=O)Nc1ccc2[nH]c(=O)c3ccccc3c2c1`: 20.5 µM [falling, partial curve]; `COc1c2c(cc3c1-c1c(cc4c(c1OC)OCO4)CC(C)C(C)C3)OCO2` (stereo not drawn): 22.6 µM [falling, single point].

Broadly, the AC50 is the concentration giving half of the maximal activity seen.
